The values below come from doi:10.1101/2021.03.22.436447.

Results are given in words; binding and its absence hold for the method and conditions named. Some entries that bind do so weakly or less than the wild type.

The target in the assay is spectacled caiman (Caiman crocodilus) hemoglobin tetramer (Caiman crocodilus (endogenous in red blood cells)) (UniProt P02000+P02131). Nature of the assay: SEC.

For “spectacled caiman (Caiman crocodilus) hemoglobin tetramer (from UniProt P02000 1-141; P02131 1-146) (complex)”, the binding result was “binds”.
